Data on 24 compounds can be found in the supplement of paper PMC4604168 (melanoma cell lines).

The other results are listed elsewhere or left out. Many values rest on one well or one pass, so single values are uncertain.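 Imaging used 1,536-well plates; nuclei positive for cleaved PARP by antibody were divided by total DNA-stained nuclei to yield the apoptosis fraction. Doses for screening kept most cells viable, and cell lines differ markedly in resting and induced cleaved-PARP levels.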

Common to all, as to test: cleaved PARP positive nuclei fraction relative to DMSO control; melanoma cells; higher = more apoptosis
Common to all, as to conditions: library dose: low library concentration; 72 h

For test [1], the system named is WM115.
Test [2] has as its system WM1716.
In test [3] the test system is WM1745.
For test [4], the system named is WM3526.
For test [5], the system named is WM3619.
Test [6] has as its system WM451Lu.

`NC(=O)c1ccc(N(C(N)=O)c2c(F)cccc2F)nc1-c1ccc(F)cc1F` + Cn1cc(/C=C2\C(=O)Nc3cccnc32)c2ccccc21 [GW441756] (first compound 0.4 µM, partner dose 0.4 µM): the “cleaved PARP positive nuclei fraction” value amounted to 152% in test [1]; 188% in test [2]; 94.8% in test [3]; 69.3% in test [4]; 90.2% in test [5]; 31.9% in test [6].
Turning to `C[C@]1(O)C[C@@H](c2nc(-c3ccc4ccc(-c5ccccc5)nc4c3)c3c(N)nccn32)C1` + CN1CCN(c2ccc3nc(-c4c(N)c5c(F)cccc5[nH]c4=O)[nH]c3c2)CC1 [Dovitinib] (first compound 0.4 µM, partner dose 0.1 µM), the “cleaved PARP positive nuclei fraction” value in test [1] turned out to be 178%; in test [2] it was 133%; in test [3] it was 109%; in test [4], 89.6%; in test [5], 101%; in test [6], 204%.
In the case of `CC1(C)CCC(c2ccc(Cl)cc2)=C(CN2CCN(c3ccc(C(=O)NS(=O)(=O)c4ccc(N[C@H](CCN5CCOCC5)CSc5ccccc5)c(S(=O)(=O)C(F)(F)F)c4)cc3)CC2)C1` + Cn1cncc1[C@@](N)(c1ccc(Cl)cc1)c1ccc2c(c1)c(-c1cccc(Cl)c1)cc(=O)n2C [tipifarnib] (first compound 0.4 µM, partner dose 0.01 µM), the “cleaved PARP positive nuclei fraction” value in test [1] is 527%; in test [2] it was 223%; in test [3], 803%; in test [4] it was 74.5%; in test [5], 157%; in test [6], 52.3%.
For the compound `NC1(c2ccc(-c3nc4ccn5c(=O)[nH]nc5c4cc3-c3ccccc3)cc2)CCC1` + Cn1nnc2c(C(N)=O)ncn2c1=O [temozolomide] (first compound 0.4 µM, partner dose 2 µM), the “cleaved PARP positive nuclei fraction” value in test [1] came to 287%; in test [2] it was 168%; in test [3], 113%; in test [4], 57.7%; in test [5], 128%; in test [6] it was 86.9%.
For the compound `NC(=O)c1ccc(N(C(N)=O)c2c(F)cccc2F)nc1-c1ccc(F)cc1F` + CC(=O)c1c(C)c2cnc(Nc3ccc(N4CCNCC4)cn3)nc2n(C2CCCC2)c1=O [palbociclib] (first compound 0.4 µM, partner dose 0.04 µM), the “cleaved PARP positive nuclei fraction” value in test [1] is 91%; in test [2], 49.6%; in test [3], 114%; in test [4], 93.1%; in test [5] it was 165%; in test [6] it was 32%.
Turning to `NC1(c2ccc(-c3nc4ccn5c(=O)[nH]nc5c4cc3-c3ccccc3)cc2)CCC1` + Cc1ccc(NC(=O)c2cccc(N(C)C)c2)cc1NC(=O)c1ccc(O)cc1 [ZM336372] (first compound 0.4 µM, partner dose 2 µM), the “cleaved PARP positive nuclei fraction” value in test [1] was 128%; in test [2], 224%; in test [3] it was 95.7%; in test [4] it was 134%; in test [5] it was 92.6%; in test [6], 55.6%.
For the compound `C[C@@H](N)c1ccc(C(=O)Nc2ccnc3[nH]ccc23)cc1` + Cn1nnc2c(C(N)=O)ncn2c1=O [temozolomide] (first compound 0.4 µM, partner dose 2 µM), the “cleaved PARP positive nuclei fraction” value in test [1] is 145%; in test [2], 56.2%; in test [3], 128%; in test [4], 34.2%; in test [5], 103%; in test [6], 59.2%.
In the case of `CCN(CC)CCNC(=O)c1c(C)[nH]c(/C=C2\C(=O)Nc3ccc(F)cc32)c1C` [sunitinib] + COc1cc(Nc2ncc(F)c(Nc3ccc4c(n3)NC(=O)C(C)(C)O4)n2)cc(OC)c1OC [Tamatinib] (first compound 0.4 µM, partner dose 0.4 µM), the “cleaved PARP positive nuclei fraction” value in test [1] came to 97.2%; in test [2], 104%; in test [3] it was 138%; in test [4], 135%; in test [5], 98.4%; in test [6] it was 48.5%.
Take `COc1ccc(C2=N[C@@H](c3ccc(Cl)cc3)[C@@H](c3ccc(Cl)cc3)N2C(=O)N2CCNC(=O)C2)c(OC(C)C)c1` [Nutlin-3] + CN(NC(=O)CC(=O)NN(C)C(=S)c1ccccc1)C(=S)c1ccccc1 [STA4783] (first compound 0.1 µM, partner dose 0.006 µM): the “cleaved PARP positive nuclei fraction” value worked out at 60.5% in test [1]; 123% in test [2]; 237% in test [3]; 104% in test [4]; 222% in test [5]; 220% in test [6].
For `Cn1sc(=O)n(Cc2ccccc2)c1=O` + Cn1c(Nc2ccc(C(F)(F)F)cc2)nc2cc(Oc3ccnc(-c4ncc(C(F)(F)F)[nH]4)c3)ccc21 [CHIR265] (first compound 0.4 µM, partner dose 0.08 µM), the “cleaved PARP positive nuclei fraction” value in test [1] was determined as 489%; in test [2] it was 77.6%; in test [3], 128%; in test [4], 129%; in test [5], 152%; in test [6], 45.6%.
Regarding `COc1ccc(C2=N[C@@H](c3ccc(Cl)cc3)[C@@H](c3ccc(Cl)cc3)N2C(=O)N2CCNC(=O)C2)c(OC(C)C)c1` [Nutlin-3] + C=CCNC1=C2C[C@@H](C)C[C@H](OC)[C@H](O)[C@@H](C)/C=C(\C)[C@H](OC(N)=O)[C@@H](OC)/C=C\C=C(/C)C(=O)NC(=CC1=O)C2=O [Tanespimycin] (first compound 0.1 µM, partner dose 0.002 µM), the “cleaved PARP positive nuclei fraction” value came out at 95.3% in test [1]; 15.5% in test [2]; 87.1% in test [3]; 37.5% in test [4]; 106% in test [5]; 128% in test [6].
On to `CC1(C)CCC(c2ccc(Cl)cc2)=C(CN2CCN(c3ccc(C(=O)NS(=O)(=O)c4ccc(N[C@H](CCN5CCOCC5)CSc5ccccc5)c(S(=O)(=O)C(F)(F)F)c4)cc3)CC2)C1` + Cc1cc([N+](=O)[O-])ccc1NS(=O)(=O)c1cc(Cl)ccc1Cl [FH535] (first compound 0.4 µM, partner dose 1 µM), for which the “cleaved PARP positive nuclei fraction” value was 642% in test [1]; 254% in test [2]; 519% in test [3]; 258% in test [4]; 98.5% in test [5]; 146% in test [6].
On to `NC1(c2ccc(-c3nc4ccn5c(=O)[nH]nc5c4cc3-c3ccccc3)cc2)CCC1` + C#Cc1cccc(Nc2ncnc3cc(OCCOC)c(OCCOC)cc23)c1 [erlotinib] (first compound 0.4 µM, partner dose 0.8 µM), for which the “cleaved PARP positive nuclei fraction” value turned out to be 227% in test [1]; 52.1% in test [2]; 115% in test [3]; 58.9% in test [4]; 87.1% in test [5]; 32.1% in test [6].
In the case of `NC(=O)c1ccc(N(C(N)=O)c2c(F)cccc2F)nc1-c1ccc(F)cc1F` + Cn1c(Nc2ccc(C(F)(F)F)cc2)nc2cc(Oc3ccnc(-c4ncc(C(F)(F)F)[nH]4)c3)ccc21 [CHIR265] (first compound 0.4 µM, partner dose 0.08 µM), the “cleaved PARP positive nuclei fraction” value in test [1] is 200%; in test [2], 62.1%; in test [3], 114%; in test [4], 27.3%; in test [5], 97.2%; in test [6], 27.1%.
As for `NC(=O)c1ccc(N(C(N)=O)c2c(F)cccc2F)nc1-c1ccc(F)cc1F` + CN(C)S(=O)(=O)c1ccc2c(c1)/C(=C/c1cc3c([nH]1)CCCC3)C(=O)N2 [SU6656] (first compound 0.4 µM, partner dose 0.4 µM), the “cleaved PARP positive nuclei fraction” value came to 119% in test [1]; 106% in test [2]; 94.9% in test [3]; 62.2% in test [4]; 91.3% in test [5]; 362% in test [6].
Consider `C[C@]1(O)C[C@@H](c2nc(-c3ccc4ccc(-c5ccccc5)nc4c3)c3c(N)nccn32)C1` + NCC(=O)Nc1ccc(-n2nc(C(F)(F)F)cc2-c2ccc3c(ccc4ccccc43)c2)cc1 [OSU03012] (first compound 0.4 µM, partner dose 1 µM), for which the “cleaved PARP positive nuclei fraction” value is 48% in test [1]; 149% in test [2]; 122% in test [3]; 247% in test [4]; 140% in test [5]; 145% in test [6].
Take `CCCCCCCCc1ccc(CCC(N)(CO)CO)cc1` [fingolimod] + CN(C)S(=O)(=O)c1ccc2c(c1)/C(=C/c1cc3c([nH]1)CCCC3)C(=O)N2 [SU6656] (first compound 2 µM, partner dose 0.4 µM): the “cleaved PARP positive nuclei fraction” value in test [1] is 91.4%; in test [2], 112%; in test [3], 174%; in test [4], 76.7%; in test [5] it was 279%; in test [6], 81.8%.
Turning to `CCCCCCCCc1ccc(CCC(N)(CO)CO)cc1` [fingolimod] + COC(=O)c1sccc1S(=O)(=O)Nc1ccc(Nc2ccccc2)cc1OC [GSK0660] (first compound 2 µM, partner dose 1 µM), the “cleaved PARP positive nuclei fraction” value in test [1] turned out to be 181%; in test [2] it was 26.9%; in test [3] it was 105%; in test [4] it was 84.6%; in test [5], 75%; in test [6], 35.6%.
As for `CN(c1ncccc1CNc1nc(Nc2ccc3c(c2)CC(=O)N3)ncc1C(F)(F)F)S(C)(=O)=O` + COc1cc2c(Oc3ccc4[nH]c(C)cc4c3F)ncnc2cc1OCCCN1CCCC1 [cediranib] (first compound 0.08 µM, partner dose 0.4 µM), the “cleaved PARP positive nuclei fraction” value in test [1] stood at 25.3%; in test [2] it was 90.6%; in test [3], 106%; in test [4] it was 74.4%; in test [5], 90.9%; in test [6] it was 75.6%.
With `CCN(CC)CCNC(=O)c1c(C)[nH]c(/C=C2\C(=O)Nc3ccc(F)cc32)c1C` [sunitinib] + COc1cc2ncnc(Nc3ccc(Oc4ccccc4)cc3)c2cc1OC [SrcI1] (first compound 0.4 µM, partner dose 2 µM), the “cleaved PARP positive nuclei fraction” value was 48.9% in test [1]; 88% in test [2]; 123% in test [3]; 232% in test [4]; 82.7% in test [5]; 124% in test [6].
For `CS(=O)(=O)c1ccc(C(=O)Nc2ccc(Cl)c(-c3ccccn3)c2)c(Cl)c1` [vismodegib] + CN(NC(=O)CC(=O)NN(C)C(=S)c1ccccc1)C(=S)c1ccccc1 [STA4783] (first compound 1 µM, partner dose 0.006 µM), the “cleaved PARP positive nuclei fraction” value is 58.3% in test [1]; 98% in test [2]; 231% in test [3]; 262% in test [4]; 161% in test [5]; 59.3% in test [6].
For `CS(=O)(=O)c1ccc(C(=O)Nc2ccc(Cl)c(-c3ccccn3)c2)c(Cl)c1` [vismodegib] + CCN(CC)CCNC(=O)c1c(C)[nH]c(/C=C2\C(=O)Nc3ccc(F)cc32)c1C [sunitinib] (first compound 1 µM, partner dose 0.4 µM), the “cleaved PARP positive nuclei fraction” value in test [1] came to 108%; in test [2], 54.1%; in test [3], 89.2%; in test [4], 89.5%; in test [5] it was 65.4%; in test [6], 93.4%.
Regarding `CCN(CC)CCNC(=O)c1c(C)[nH]c(/C=C2\C(=O)Nc3ccc(F)cc32)c1C` [sunitinib] + CC1(C)NC(=O)N(c2ccc([N+](=O)[O-])c(C(F)(F)F)c2)C1=O [nilutamide] (first compound 0.4 µM, partner dose 1 µM), the “cleaved PARP positive nuclei fraction” value was determined as 22.9% in test [1]; 72.7% in test [2]; 114% in test [3]; 62.2% in test [4]; 77.7% in test [5]; 75.8% in test [6].
With `COc1ccc(C2=N[C@@H](c3ccc(Cl)cc3)[C@@H](c3ccc(Cl)cc3)N2C(=O)N2CCNC(=O)C2)c(OC(C)C)c1` [Nutlin-3] + CS(=O)(=O)CCNCc1ccc(-c2ccc3ncnc(Nc4ccc(OCc5cccc(F)c5)c(Cl)c4)c3c2)o1 [lapatinib] (first compound 0.1 µM, partner dose 0.8 µM), the “cleaved PARP positive nuclei fraction” value in test [1] is 69.7%; in test [2], 50.6%; in test [3] it was 77.2%; in test [4] it was 20%; in test [5] it was 83.5%; in test [6], 17.9%.
